# Test results: the supplement of paper PMC10032668
# Amino acid sequences for entries named in this document (tags omitted).
# POLE, Q07864, UniProt Q07864, whole entry: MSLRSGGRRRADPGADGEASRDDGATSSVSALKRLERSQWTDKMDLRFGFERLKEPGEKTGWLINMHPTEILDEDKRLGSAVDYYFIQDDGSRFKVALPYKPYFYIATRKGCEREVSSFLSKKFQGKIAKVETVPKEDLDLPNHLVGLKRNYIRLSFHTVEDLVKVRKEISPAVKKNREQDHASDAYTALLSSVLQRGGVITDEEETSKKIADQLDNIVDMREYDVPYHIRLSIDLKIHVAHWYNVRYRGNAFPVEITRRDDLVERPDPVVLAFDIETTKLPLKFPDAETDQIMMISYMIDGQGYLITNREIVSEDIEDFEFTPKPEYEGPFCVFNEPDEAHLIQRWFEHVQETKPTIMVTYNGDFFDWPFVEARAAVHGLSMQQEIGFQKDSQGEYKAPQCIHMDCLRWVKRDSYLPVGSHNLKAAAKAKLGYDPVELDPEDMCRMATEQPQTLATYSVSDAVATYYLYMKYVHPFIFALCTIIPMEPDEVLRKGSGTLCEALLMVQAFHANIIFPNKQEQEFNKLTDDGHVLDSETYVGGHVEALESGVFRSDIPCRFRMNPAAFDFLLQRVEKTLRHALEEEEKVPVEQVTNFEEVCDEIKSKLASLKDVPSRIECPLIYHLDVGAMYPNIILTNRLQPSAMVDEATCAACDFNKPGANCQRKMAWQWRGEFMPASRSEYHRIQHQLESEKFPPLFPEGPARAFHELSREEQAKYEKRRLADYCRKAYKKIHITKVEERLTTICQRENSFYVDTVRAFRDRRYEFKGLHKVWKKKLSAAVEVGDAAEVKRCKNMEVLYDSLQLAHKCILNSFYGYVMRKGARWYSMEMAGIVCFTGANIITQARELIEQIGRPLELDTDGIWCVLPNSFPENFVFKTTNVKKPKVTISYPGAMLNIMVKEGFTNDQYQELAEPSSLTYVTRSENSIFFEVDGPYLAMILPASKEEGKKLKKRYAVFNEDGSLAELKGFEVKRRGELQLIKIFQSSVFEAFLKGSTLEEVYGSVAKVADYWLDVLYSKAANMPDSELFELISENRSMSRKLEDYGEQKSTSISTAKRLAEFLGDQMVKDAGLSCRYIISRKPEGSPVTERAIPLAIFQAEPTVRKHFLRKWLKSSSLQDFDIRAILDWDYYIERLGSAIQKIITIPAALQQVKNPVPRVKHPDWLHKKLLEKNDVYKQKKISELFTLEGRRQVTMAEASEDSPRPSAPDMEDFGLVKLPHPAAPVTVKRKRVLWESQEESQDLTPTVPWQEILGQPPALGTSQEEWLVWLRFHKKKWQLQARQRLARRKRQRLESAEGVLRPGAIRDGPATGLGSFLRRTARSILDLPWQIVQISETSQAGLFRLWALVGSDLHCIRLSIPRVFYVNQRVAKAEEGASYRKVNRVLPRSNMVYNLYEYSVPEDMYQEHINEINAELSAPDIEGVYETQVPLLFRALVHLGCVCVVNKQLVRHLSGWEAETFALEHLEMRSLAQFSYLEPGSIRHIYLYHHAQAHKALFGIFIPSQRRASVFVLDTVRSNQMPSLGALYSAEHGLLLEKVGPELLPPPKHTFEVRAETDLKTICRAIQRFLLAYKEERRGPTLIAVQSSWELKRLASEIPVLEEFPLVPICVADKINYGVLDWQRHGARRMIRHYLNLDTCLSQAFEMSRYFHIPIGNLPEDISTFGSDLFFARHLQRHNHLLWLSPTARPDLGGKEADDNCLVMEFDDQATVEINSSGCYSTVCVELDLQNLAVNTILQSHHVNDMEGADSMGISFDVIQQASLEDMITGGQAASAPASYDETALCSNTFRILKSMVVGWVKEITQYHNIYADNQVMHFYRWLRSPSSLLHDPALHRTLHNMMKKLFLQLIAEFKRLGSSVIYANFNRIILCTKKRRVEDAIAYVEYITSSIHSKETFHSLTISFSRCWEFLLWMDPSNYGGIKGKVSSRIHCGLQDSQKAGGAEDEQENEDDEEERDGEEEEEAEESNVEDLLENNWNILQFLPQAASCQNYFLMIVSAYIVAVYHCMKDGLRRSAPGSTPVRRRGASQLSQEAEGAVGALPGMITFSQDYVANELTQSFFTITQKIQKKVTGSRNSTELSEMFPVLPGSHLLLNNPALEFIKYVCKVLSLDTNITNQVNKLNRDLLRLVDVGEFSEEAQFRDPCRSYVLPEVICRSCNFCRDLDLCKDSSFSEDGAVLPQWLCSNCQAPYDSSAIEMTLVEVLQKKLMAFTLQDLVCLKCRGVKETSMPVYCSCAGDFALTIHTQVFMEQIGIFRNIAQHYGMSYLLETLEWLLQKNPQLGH
# CKS2, P33552, UniProt P33552, whole entry: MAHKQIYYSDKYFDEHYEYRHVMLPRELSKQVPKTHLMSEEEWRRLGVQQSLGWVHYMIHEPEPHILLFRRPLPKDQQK
# DLAT, P10515, UniProt P10515, whole entry: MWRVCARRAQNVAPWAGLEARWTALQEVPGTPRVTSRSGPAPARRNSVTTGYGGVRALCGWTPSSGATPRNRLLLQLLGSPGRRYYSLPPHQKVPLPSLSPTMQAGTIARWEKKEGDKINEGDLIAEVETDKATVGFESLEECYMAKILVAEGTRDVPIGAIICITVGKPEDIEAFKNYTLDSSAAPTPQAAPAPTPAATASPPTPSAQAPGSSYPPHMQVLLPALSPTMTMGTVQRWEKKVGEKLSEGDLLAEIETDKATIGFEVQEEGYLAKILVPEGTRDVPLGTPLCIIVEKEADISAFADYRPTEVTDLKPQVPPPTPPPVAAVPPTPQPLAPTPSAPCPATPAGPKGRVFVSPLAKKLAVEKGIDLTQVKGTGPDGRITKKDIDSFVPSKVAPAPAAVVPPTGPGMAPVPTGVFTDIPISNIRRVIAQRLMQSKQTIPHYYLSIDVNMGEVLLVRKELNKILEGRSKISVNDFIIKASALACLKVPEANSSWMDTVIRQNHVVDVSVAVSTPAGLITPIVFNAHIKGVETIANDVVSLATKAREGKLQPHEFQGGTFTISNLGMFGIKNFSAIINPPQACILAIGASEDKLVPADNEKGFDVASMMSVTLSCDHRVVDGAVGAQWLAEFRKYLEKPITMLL
# FAM168B, A1KXE4, UniProt A1KXE4, whole entry: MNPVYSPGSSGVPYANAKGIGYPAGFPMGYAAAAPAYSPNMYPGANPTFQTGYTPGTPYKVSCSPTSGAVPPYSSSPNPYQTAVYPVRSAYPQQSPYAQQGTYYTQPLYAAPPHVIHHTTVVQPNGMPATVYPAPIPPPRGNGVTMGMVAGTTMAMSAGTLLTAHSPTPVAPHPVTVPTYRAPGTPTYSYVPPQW
# PCBP2, Q15366, UniProt Q15366, whole entry: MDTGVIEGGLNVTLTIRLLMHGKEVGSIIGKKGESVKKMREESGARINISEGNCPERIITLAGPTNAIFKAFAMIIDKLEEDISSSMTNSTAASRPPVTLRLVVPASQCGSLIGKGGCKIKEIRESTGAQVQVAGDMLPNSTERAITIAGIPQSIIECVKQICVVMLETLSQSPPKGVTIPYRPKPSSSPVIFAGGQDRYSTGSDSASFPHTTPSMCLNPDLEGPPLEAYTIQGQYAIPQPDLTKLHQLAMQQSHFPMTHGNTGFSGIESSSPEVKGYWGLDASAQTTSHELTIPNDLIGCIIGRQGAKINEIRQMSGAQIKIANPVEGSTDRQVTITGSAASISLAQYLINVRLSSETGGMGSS
# SP1, P08047, UniProt P08047, whole entry: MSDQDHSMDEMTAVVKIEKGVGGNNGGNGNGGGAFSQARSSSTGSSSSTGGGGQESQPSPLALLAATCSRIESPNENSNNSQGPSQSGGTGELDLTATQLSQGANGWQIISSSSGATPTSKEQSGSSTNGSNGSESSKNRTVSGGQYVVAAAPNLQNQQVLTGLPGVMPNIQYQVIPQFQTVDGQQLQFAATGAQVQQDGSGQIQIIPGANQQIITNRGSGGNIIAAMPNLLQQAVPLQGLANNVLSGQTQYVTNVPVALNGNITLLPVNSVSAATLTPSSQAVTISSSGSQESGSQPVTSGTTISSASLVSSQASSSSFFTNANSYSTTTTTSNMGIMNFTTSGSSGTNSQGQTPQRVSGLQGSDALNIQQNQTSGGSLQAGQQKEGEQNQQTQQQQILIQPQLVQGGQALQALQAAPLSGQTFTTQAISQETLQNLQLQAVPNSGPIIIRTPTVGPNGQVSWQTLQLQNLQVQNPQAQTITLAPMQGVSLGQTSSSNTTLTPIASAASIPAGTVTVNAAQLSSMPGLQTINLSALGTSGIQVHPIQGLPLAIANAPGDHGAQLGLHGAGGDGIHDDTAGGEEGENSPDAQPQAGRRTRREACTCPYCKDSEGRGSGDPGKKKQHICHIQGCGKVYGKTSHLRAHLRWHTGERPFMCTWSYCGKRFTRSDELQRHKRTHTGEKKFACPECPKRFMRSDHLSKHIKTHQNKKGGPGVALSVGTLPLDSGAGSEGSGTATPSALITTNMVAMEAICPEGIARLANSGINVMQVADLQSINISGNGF
# COX6C, P09669, UniProt P09669, whole entry: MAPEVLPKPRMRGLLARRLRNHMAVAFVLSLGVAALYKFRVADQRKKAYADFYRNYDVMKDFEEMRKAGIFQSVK
# ATXN2, Q99700, UniProt Q99700, whole entry: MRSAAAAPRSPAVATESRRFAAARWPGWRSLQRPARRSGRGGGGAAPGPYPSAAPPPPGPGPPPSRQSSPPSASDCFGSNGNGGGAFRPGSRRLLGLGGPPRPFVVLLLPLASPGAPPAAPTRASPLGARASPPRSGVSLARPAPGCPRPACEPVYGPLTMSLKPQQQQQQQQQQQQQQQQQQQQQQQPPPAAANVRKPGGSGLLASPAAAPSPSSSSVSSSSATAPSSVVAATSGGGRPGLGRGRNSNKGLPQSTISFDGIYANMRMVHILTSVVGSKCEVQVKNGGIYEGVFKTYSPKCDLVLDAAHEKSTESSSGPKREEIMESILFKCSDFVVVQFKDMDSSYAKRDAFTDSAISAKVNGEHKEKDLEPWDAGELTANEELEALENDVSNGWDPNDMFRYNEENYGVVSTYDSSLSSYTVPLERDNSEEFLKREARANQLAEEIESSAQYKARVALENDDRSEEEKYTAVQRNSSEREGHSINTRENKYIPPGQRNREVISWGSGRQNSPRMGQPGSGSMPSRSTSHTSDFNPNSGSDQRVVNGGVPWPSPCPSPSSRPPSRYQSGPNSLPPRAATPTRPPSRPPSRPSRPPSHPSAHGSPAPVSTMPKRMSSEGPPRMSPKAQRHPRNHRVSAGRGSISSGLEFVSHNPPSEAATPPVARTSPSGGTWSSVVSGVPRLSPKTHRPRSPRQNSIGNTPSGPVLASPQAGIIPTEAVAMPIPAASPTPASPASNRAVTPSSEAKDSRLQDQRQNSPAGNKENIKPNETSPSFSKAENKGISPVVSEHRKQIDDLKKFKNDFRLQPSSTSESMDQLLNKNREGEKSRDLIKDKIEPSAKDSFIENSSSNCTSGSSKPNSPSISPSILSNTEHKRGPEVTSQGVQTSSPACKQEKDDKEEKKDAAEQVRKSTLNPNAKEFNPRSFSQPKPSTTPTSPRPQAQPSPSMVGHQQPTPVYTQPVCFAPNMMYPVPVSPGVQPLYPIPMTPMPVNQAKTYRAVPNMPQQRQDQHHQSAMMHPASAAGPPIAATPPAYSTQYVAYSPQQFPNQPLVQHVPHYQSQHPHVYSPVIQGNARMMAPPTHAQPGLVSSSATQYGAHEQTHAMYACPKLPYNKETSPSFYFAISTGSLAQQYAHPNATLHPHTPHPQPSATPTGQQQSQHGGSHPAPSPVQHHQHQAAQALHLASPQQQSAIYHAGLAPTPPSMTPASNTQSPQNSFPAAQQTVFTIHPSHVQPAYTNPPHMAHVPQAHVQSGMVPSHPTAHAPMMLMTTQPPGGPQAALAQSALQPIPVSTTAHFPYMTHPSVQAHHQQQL
# MSN, P26038, UniProt P26038, whole entry: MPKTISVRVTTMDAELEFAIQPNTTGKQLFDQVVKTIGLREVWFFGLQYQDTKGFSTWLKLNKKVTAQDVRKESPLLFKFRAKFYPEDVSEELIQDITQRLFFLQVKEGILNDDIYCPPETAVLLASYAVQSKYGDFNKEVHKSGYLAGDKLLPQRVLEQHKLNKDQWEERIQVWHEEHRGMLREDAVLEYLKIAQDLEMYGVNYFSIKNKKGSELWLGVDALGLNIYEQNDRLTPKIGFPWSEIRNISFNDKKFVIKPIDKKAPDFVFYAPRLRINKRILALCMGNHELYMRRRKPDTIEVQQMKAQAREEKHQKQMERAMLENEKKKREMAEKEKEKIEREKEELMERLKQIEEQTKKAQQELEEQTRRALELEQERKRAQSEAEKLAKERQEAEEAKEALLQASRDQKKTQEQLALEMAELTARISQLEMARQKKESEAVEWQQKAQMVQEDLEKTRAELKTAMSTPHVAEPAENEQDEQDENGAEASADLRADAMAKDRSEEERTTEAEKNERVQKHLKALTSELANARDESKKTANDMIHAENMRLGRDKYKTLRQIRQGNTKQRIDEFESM
# The list shows a part of the results. The list holds hits alone, and they repeat only in part.
# Key:
# Experiment in all cases: PRISMA enrichment of interactor (LFQ) in peptide spot vs all other peptide spots (log2 fold change); higher = stronger / more specific binding of the interactor to the peptide
# [1] = molecular target: ARL6IP5, O75915
# Experimental: (§1)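 PRISMA: 15-aa overlapping tiles (offset 8 aa) of 60 microproteins, plus SOS1/GLUT1 control peptides, were spot-synthesized on cellulose membranes in triplicate. Membranes were incubated with benzonase-treated HEK293T lysate, and bound proteins were identified by LC-MS/MS with LFQ. Enrichment is the log2 fold change of each protein in one spot versus all other spots. Only interactors passing the significance cutoff are listed.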
# [2] = molecular target: C19orf53, Q9UNZ5
# Experimental: as §1
# [3] = molecular target: CDC5L, Q99459
# Experimental: as §1
# [4] = molecular target: DOCK7, Q96N67
# Experimental: as §1
# [5] = molecular target: EDF1, O60869
# Experimental: as §1
# [6] = molecular target: G3BP1, Q13283
# Experimental: as §1
# [7] = molecular target: GTPBP4, Q9BZE4
# Experimental: as §1
# [8] = molecular target: HUWE1, Q7Z6Z7
# Experimental: as §1
# [9] = molecular target: NCAPG, Q9BPX3
# Experimental: as §1
# [10] = molecular target: ODF2, Q5BJF6
# Experimental: as §1
# [11] = molecular target: PABPN1, Q86U42
# Experimental: as §1
# [12] = molecular target: PEX11B, O96011
# Experimental: as §1
# [13] = molecular target: PNO1, Q9NRX1
# Experimental: as §1
# [14] = molecular target: POLE, Q07864
# Experimental: as §1
# [15] = molecular target: PSMD11, O00231
# Experimental: as §1
# [16] = molecular target: RBM33, Q96EV2
# Experimental: as §1
# [17] = molecular target: RBMS1, P29558
# Experimental: as §1
# [18] = molecular target: SLC30A7, Q8NEW0
# Experimental: as §1
# [19] = molecular target: SNX27, Q96L92
# Experimental: as §1
# [20] = molecular target: TEX264, Q9Y6I9
# Experimental: as §1
# [21] = molecular target: ARMC6, Q6NXE6
# Experimental: as §1
# [22] = molecular target: CARM1, Q86X55
# Experimental: as §1
# [23] = molecular target: CGN, Q9P2M7
# Experimental: as §1
# [24] = molecular target: CKS2, P33552
# Experimental: as §1
# [25] = molecular target: COPZ1, P61923
# Experimental: as §1
# [26] = molecular target: CTR9, Q6PD62
# Experimental: as §1
# [27] = molecular target: DDX5, P17844
# Experimental: as §1
# [28] = molecular target: DLAT, P10515
# Experimental: as §1
# [29] = molecular target: FAM168B, A1KXE4
# Experimental: as §1
# [30] = molecular target: MBNL1, Q9NR56
# Experimental: as §1
# [31] = molecular target: MRPL27, Q9P0M9
# Experimental: as §1
# [32] = molecular target: PCBP2, Q15366
# Experimental: as §1
# [33] = molecular target: PHGDH, O43175
# Experimental: as §1
# [34] = molecular target: POU2F1, P14859
# Experimental: as §1
# [35] = molecular target: QRICH1, Q2TAL8
# Experimental: as §1
# [36] = molecular target: RBM38, Q9H0Z9
# Experimental: as §1
# [37] = molecular target: SP1, P08047
# Experimental: as §1
# [38] = molecular target: BRIX1, Q8TDN6
# Experimental: as §1
# [39] = molecular target: COX6C, P09669
# Experimental: as §1
# [40] = molecular target: GABARAPL2, P60520
# Experimental: as §1
# [41] = molecular target: NCBP2AS2, Q69YL0
# Experimental: as §1
# [42] = molecular target: PDCL3, Q9H2J4
# Experimental: as §1
# [43] = molecular target: POLD1, P28340
# Experimental: as §1
# [44] = molecular target: PRAF2, O60831
# Experimental: as §1
# [45] = molecular target: SDAD1, Q9NVU7
# Experimental: as §1
# [46] = molecular target: TBCD, Q9BTW9
# Experimental: as §1
# [47] = molecular target: TFRC, P02786
# Experimental: as §1
# [48] = molecular target: ATXN2, Q99700
# Experimental: as §1
# [49] = molecular target: BAZ1B, Q9UIG0
# Experimental: as §1
# [50] = molecular target: CDC42EP1, Q00587
# Experimental: as §1
# [51] = molecular target: CHCHD1, Q96BP2
# Experimental: as §1
# [52] = molecular target: CHMP4B, Q9H444
# Experimental: as §1
# [53] = molecular target: COQ8A, Q8NI60
# Experimental: as §1
# [54] = molecular target: DFFA, O00273
# Experimental: as §1
# [55] = molecular target: DKC1, O60832
# Experimental: as §1
# [56] = molecular target: DNAJB11, Q9UBS4
# Experimental: as §1
# [57] = molecular target: EEF1B2, P24534
# Experimental: as §1
# [58] = molecular target: EHD1, Q9H4M9
# Experimental: as §1
# [59] = molecular target: FAM50A, Q14320
# Experimental: as §1
# [60] = molecular target: MAPRE1, Q15691
# Experimental: as §1
# [61] = molecular target: MSN, P26038
# Experimental: as §1
# [62] = molecular target: NOP56, O00567
# Experimental: as §1
# [63] = molecular target: NSD2, O96028
# Experimental: as §1
# [64] = molecular target: NUP214, P35658
# Experimental: as §1
# [65] = molecular target: POLD2, P49005
# Experimental: as §1
# [66] = molecular target: PRPS2, P11908
# Experimental: as §1
# [67] = molecular target: RAB3GAP2, Q9H2M9
# Experimental: as §1
# [68] = molecular target: RAE1, P78406
# Experimental: as §1
# [69] = molecular target: SDF2L1, Q9HCN8
# Experimental: as §1
# [70] = molecular target: SSR3, Q9UNL2
# Experimental: as §1
# [71] = molecular target: UFD1, Q92890
# Experimental: as §1
# [72] = molecular target: UTP18, Q9Y5J1
# Experimental: as §1
# [73] = molecular target: VIRMA, Q69YN4
# Experimental: as §1
# [74] = molecular target: ZC3H11A, O75152
# Experimental: as §1
# [75] = molecular target: ZFR, Q96KR1
# Experimental: as §1
# [76] = molecular target: CSNK2A1, P68400
# Experimental: as §1
# [77] = molecular target: EIF2B1, Q14232
# Experimental: as §1
# [78] = molecular target: NOL12, Q9UGY1
# Experimental: as §1
# [79] = molecular target: POLR2B, P30876
# Experimental: as §1
# [80] = molecular target: POLRMT, O00411
# Experimental: as §1
# [81] = molecular target: PSMD7, P51665
# Experimental: as §1
# [82] = molecular target: SDF2, Q99470
# Experimental: as §1
binder,measurement,setting,value
MLPLPSQVGSRYLLS,PRISMA enrichment of interactor (log2),[1],5.44
same,PRISMA enrichment of interactor (log2),[2],6.88
same,PRISMA enrichment of interactor (log2),[3],7.94
same,PRISMA enrichment of interactor (log2),[4],3.92
same,PRISMA enrichment of interactor (log2),[5],6.26
same,PRISMA enrichment of interactor (log2),[6],5.5
same,PRISMA enrichment of interactor (log2),[7],6.44
same,PRISMA enrichment of interactor (log2),[8],9.97
same,PRISMA enrichment of interactor (log2),[9],5.81
same,PRISMA enrichment of interactor (log2),[10],8.78
same,PRISMA enrichment of interactor (log2),[11],5.89
same,PRISMA enrichment of interactor (log2),[12],4.19
same,PRISMA enrichment of interactor (log2),[13],4.99
same,PRISMA enrichment of interactor (log2),[14],4.2
same,PRISMA enrichment of interactor (log2),[15],5.09
same,PRISMA enrichment of interactor (log2),[16],5.82
same,PRISMA enrichment of interactor (log2),[17],5.99
same,PRISMA enrichment of interactor (log2),[18],7.97
same,PRISMA enrichment of interactor (log2),[19],7.75
same,PRISMA enrichment of interactor (log2),[20],4.01
HALFLFPFPVLTVTQ [LINC00881],PRISMA enrichment of interactor (log2),[21],6.76
same,PRISMA enrichment of interactor (log2),[22],4.34
same,PRISMA enrichment of interactor (log2),[23],5.66
same,PRISMA enrichment of interactor (log2),[24],5.12
same,PRISMA enrichment of interactor (log2),[25],4.55
same,PRISMA enrichment of interactor (log2),[26],6.2
same,PRISMA enrichment of interactor (log2),[27],4.59
same,PRISMA enrichment of interactor (log2),[28],4.84
same,PRISMA enrichment of interactor (log2),[29],4.65
same,PRISMA enrichment of interactor (log2),[30],4.82
same,PRISMA enrichment of interactor (log2),[31],6.85
same,PRISMA enrichment of interactor (log2),[32],3.95
same,PRISMA enrichment of interactor (log2),[33],4.54
same,PRISMA enrichment of interactor (log2),[34],4.28
same,PRISMA enrichment of interactor (log2),[35],4.35
same,PRISMA enrichment of interactor (log2),[36],4.43
same,PRISMA enrichment of interactor (log2),[37],4.87
VGSRYLLSIRRSGLP,PRISMA enrichment of interactor (log2),[21],5.24
same,PRISMA enrichment of interactor (log2),[38],6.56
same,PRISMA enrichment of interactor (log2),[39],7.43
same,PRISMA enrichment of interactor (log2),[40],4.91
same,PRISMA enrichment of interactor (log2),[41],6.2
same,PRISMA enrichment of interactor (log2),[42],8.2
same,PRISMA enrichment of interactor (log2),[43],4.87
same,PRISMA enrichment of interactor (log2),[44],3.76
same,PRISMA enrichment of interactor (log2),[45],5.63
same,PRISMA enrichment of interactor (log2),[46],5.91
same,PRISMA enrichment of interactor (log2),[47],5.52
ICVTLLPSVYRPCTS [EBAG9],PRISMA enrichment of interactor (log2),[21],10.6
same,PRISMA enrichment of interactor (log2),[48],5.77
same,PRISMA enrichment of interactor (log2),[49],5.43
same,PRISMA enrichment of interactor (log2),[50],4.71
same,PRISMA enrichment of interactor (log2),[51],5.29
same,PRISMA enrichment of interactor (log2),[52],4.57
same,PRISMA enrichment of interactor (log2),[53],4.35
same,PRISMA enrichment of interactor (log2),[54],8.98
same,PRISMA enrichment of interactor (log2),[55],4.94
same,PRISMA enrichment of interactor (log2),[56],5.67
same,PRISMA enrichment of interactor (log2),[57],4.51
same,PRISMA enrichment of interactor (log2),[58],5.69
same,PRISMA enrichment of interactor (log2),[59],4.38
same,PRISMA enrichment of interactor (log2),[60],5.47
same,PRISMA enrichment of interactor (log2),[61],6.41
same,PRISMA enrichment of interactor (log2),[62],6.67
same,PRISMA enrichment of interactor (log2),[63],5.76
same,PRISMA enrichment of interactor (log2),[64],4.43
same,PRISMA enrichment of interactor (log2),[43],5.29
same,PRISMA enrichment of interactor (log2),[65],4.51
same,PRISMA enrichment of interactor (log2),[66],4.03
same,PRISMA enrichment of interactor (log2),[67],4.67
same,PRISMA enrichment of interactor (log2),[68],6.45
same,PRISMA enrichment of interactor (log2),[69],4.52
same,PRISMA enrichment of interactor (log2),[70],4.77
same,PRISMA enrichment of interactor (log2),[71],4.35
same,PRISMA enrichment of interactor (log2),[72],6.21
same,PRISMA enrichment of interactor (log2),[73],5.58
same,PRISMA enrichment of interactor (log2),[74],4.4
same,PRISMA enrichment of interactor (log2),[75],4.97
LETIQKKLAAKGLRD [NDUFB3],PRISMA enrichment of interactor (log2),[21],6.27
same,PRISMA enrichment of interactor (log2),[76],5.8
same,PRISMA enrichment of interactor (log2),[77],4.39
same,PRISMA enrichment of interactor (log2),[78],10.5
same,PRISMA enrichment of interactor (log2),[79],4.81
same,PRISMA enrichment of interactor (log2),[80],5.23
same,PRISMA enrichment of interactor (log2),[81],5.64
same,PRISMA enrichment of interactor (log2),[67],6.4
same,PRISMA enrichment of interactor (log2),[82],4.96

# Some of the entries so far, with bars between the fields:
binder | measurement | setting | value
MLPLPSQVGSRYLLS | PRISMA enrichment of interactor (log2) | [9] | 5.81
same | PRISMA enrichment of interactor (log2) | [10] | 8.78
same | PRISMA enrichment of interactor (log2) | [12] | 4.19
same | PRISMA enrichment of interactor (log2) | [15] | 5.09
same | PRISMA enrichment of interactor (log2) | [17] | 5.99
same | PRISMA enrichment of interactor (log2) | [19] | 7.75
HALFLFPFPVLTVTQ [LINC00881] | PRISMA enrichment of interactor (log2) | [22] | 4.34
same | PRISMA enrichment of interactor (log2) | [24] | 5.12
same | PRISMA enrichment of interactor (log2) | [25] | 4.55
same | PRISMA enrichment of interactor (log2) | [27] | 4.59
same | PRISMA enrichment of interactor (log2) | [28] | 4.84
same | PRISMA enrichment of interactor (log2) | [29] | 4.65
same | PRISMA enrichment of interactor (log2) | [30] | 4.82
same | PRISMA enrichment of interactor (log2) | [34] | 4.28
VGSRYLLSIRRSGLP | PRISMA enrichment of interactor (log2) | [39] | 7.43
ICVTLLPSVYRPCTS [EBAG9] | PRISMA enrichment of interactor (log2) | [49] | 5.43
same | PRISMA enrichment of interactor (log2) | [50] | 4.71
same | PRISMA enrichment of interactor (log2) | [54] | 8.98
same | PRISMA enrichment of interactor (log2) | [55] | 4.94
same | PRISMA enrichment of interactor (log2) | [57] | 4.51
same | PRISMA enrichment of interactor (log2) | [43] | 5.29
same | PRISMA enrichment of interactor (log2) | [67] | 4.67
same | PRISMA enrichment of interactor (log2) | [68] | 6.45
LETIQKKLAAKGLRD [NDUFB3] | PRISMA enrichment of interactor (log2) | [76] | 5.8
same | PRISMA enrichment of interactor (log2) | [77] | 4.39
same | PRISMA enrichment of interactor (log2) | [82] | 4.96
